Experimental data: PubChem BioAssay AID248 (DTP/NCI, 2004)
The list does not hold the whole screen: it gathers tests that were run many times, whatever their T/C, doses with no T/C, and many T/C values between a quarter and a half above the control. Further doses and runs are listed elsewhere. T/C: endpoint of the treated group in % of that of the vehicle group. Some entries give survivors of the animals treated and no T/C: the source holds a T/C of zero for them, seemingly a mark for toxic or unscored doses. Some survivor counts are full or nearly so, which does not show that the dose was tolerated: the source hardly ever lists a survival T/C far under the control, and the zero likely stands for such cases as well. Counts of survivors are from the toxicity check (mostly the fifth day) where no day follows; animals may have died later. Schedule codes are those of the source, taken here to give the interval after Q, in days (D) or hours (H), and the number of doses after X. Some structures stand for samples that the source files as different forms (salt, stereo form or complex); doses refer to the form tested. Counts like (3×) give the number of equal values in this list. Some doses were run more than once; their values stand side by side, smallest first. For survival time, the PubChem record calls one and a half times the control and up active, and a quarter to a half above the control has no call in these data; cut-offs in other NCI protocols can differ. Some schedule codes hold Z or #, which are not explained here. Some T/C values are followed by the survivors on the day toxicity was checked, most often the fifth; where none is given, no animal had died by that day.

Tested on: L1210 leukemia ip in BDF1 mice, survival T/C
Test: NCI In Vivo Anticancer Drug Screen. Data for tumor model L1210 Leukemia (intraperitoneal) in B6D2F1 (BDF1) mice
Details: T/C endpoint: mean survival time, higher T/C = longer survival
[1] = dose: 64.0 mg/kg/injection, schedule: Q01DX009 (ip), vehicle: Klucel (hydroxypropylcellulose) (HPC)

## Cc1c2ccncc2c(C)c2c1[nH]c1ccccc12
dose: 18.75 mg/kg/injection, schedule: Q04DX003 (ip), vehicle: saline with Tween-80
  T/C: 146 % of control [9 of 10 alive]
dose: 18.75 mg/kg/injection, schedule: Q08DX002 (ip), vehicle: steroid suspending solution
  T/C: 132 % of control
dose: 18.8 mg/kg/injection, schedule: Q01DX Z (oral), vehicle: carboxymethylcellulose (CMC)
  T/C: 142 % of control
dose: 20.0 mg/kg/injection, schedule: Q01DX009 (ip), vehicle: saline
  T/C: 144 % of control
dose: 20.0 mg/kg/injection, schedule: Q01DX015 (oral), vehicle: carboxymethylcellulose (CMC)
  T/C: 125 % of control
dose: 20.0 mg/kg/injection, schedule: Q04DX003 (ip), vehicle: saline with Tween-80
  T/C: 146 % of control
dose: 20.0 mg/kg/injection, schedule: Q## X008 (ip), vehicle: other
  T/C: 129 % of control
dose: 25.0 mg/kg/injection, schedule: Q01DX005 (oral), vehicle: saline
  T/C: 130 % of control
dose: 25.0 mg/kg/injection, schedule: Q01DX009 (ip), vehicle: citric acid
  survivor count: 10 of 10
dose: 25.0 mg/kg/injection, schedule: Q01DX009 (ip), vehicle: clinical formulation
  survivor count: 10 of 10
dose: 25.0 mg/kg/injection, schedule: Q01DX009 (ip), vehicle: saline with Tween-80
  T/C: 137 % of control
dose: 25.0 mg/kg/injection, schedule: Q01DX Z (oral), vehicle: saline
  T/C: 127 % of control
dose: 25.0 mg/kg/injection, schedule: Q04DX003 (ip), vehicle: saline with Tween-80
  T/C: 128, 134, 138, 142, 161 % of control
dose: 25.0 mg/kg/injection, schedule: Q04DX003 (ip), vehicle: saline
  T/C: 133 % of control
dose: 30.0 mg/kg/injection, schedule: Q01DX009 (ip), vehicle: saline
  T/C: 140 % of control
dose: 32.0 mg/kg/injection, schedule: Q01DX001 (ip), vehicle: clinical formulation
  T/C: 140 % of control
dose: 32.0 mg/kg/injection, schedule: Q01DX001 (ip), vehicle: saline with Tween-80
  T/C: 126 % of control
dose: 32.0 mg/kg/injection, schedule: Q01DX009 (ip), vehicle: Klucel (hydroxypropylcellulose) (HPC)
  T/C: 106 [5 of 6 alive], 138, 157, 164, 166, 168 % of control
dose: 32.0 mg/kg/injection, schedule: Q01DX009 (ip), vehicle: clinical formulation
  survivor count: 10 of 10
dose: 32.0 mg/kg/injection, schedule: Q01DX009 (ip), vehicle: other, evaluated on day 23
  T/C: 88 % of control
dose: 32.0 mg/kg/injection, schedule: Q01DX009 (ip), vehicle: other, evaluated on day 30
  T/C: 107 and 226 % of control
dose: 32.0 mg/kg/injection, schedule: Q01DX009 (ip), vehicle: other, evaluated on day 40
  T/C: 171 % of control
dose: 32.0 mg/kg/injection, schedule: Q01DX009 (ip), vehicle: saline with Tween-80, evaluated on day 30
  T/C: 104, 116, 122, 151, 158, 168, 172, 178, 180 [5 of 6 alive], 206 % of control
dose: 32.0 mg/kg/injection, schedule: Q01DX009 (ip), vehicle: saline with Tween-80, evaluated on day 38
  T/C: 97 % of control
dose: 32.0 mg/kg/injection, schedule: Q01DX009 (ip), vehicle: saline with Tween-80, evaluated on day 60
  T/C: 114, 117, 140 % of control
dose: 32.0 mg/kg/injection, schedule: Q01DX009 (ip), vehicle: saline, evaluated on day 23
  T/C: 176 % of control
dose: 32.0 mg/kg/injection, schedule: Q01DX009 (ip), vehicle: saline, evaluated on day 30
  T/C: 100, 136, 240 % of control
dose: 32.0 mg/kg/injection, schedule: Q01DX009 (ip), vehicle: water
  T/C: 129 % of control
dose: 32.0 mg/kg/injection, schedule: Q01DX009 (sc), vehicle: clinical formulation
  T/C: 131 % of control
dose: 32.0 mg/kg/injection, schedule: Q03HX008 (ip), vehicle: clinical formulation
  survivor count: 4 of 10
dose: 32.0 mg/kg/injection, schedule: Q03HX016 (ip), vehicle: clinical formulation
  survivor count: 1 of 10
dose: 32.0 mg/kg/injection, schedule: Q03HX016 (oral), vehicle: clinical formulation
  T/C: 134 % of control
dose: 32.0 mg/kg/injection, schedule: Q03HX024 (ip), vehicle: acid diluted with saline
  survivor count: 10 of 10
dose: 32.0 mg/kg/injection, schedule: Q03HX024 (ip), vehicle: clinical formulation
  survivor count: 3 of 10
dose: 32.0 mg/kg/injection, schedule: Q03HX024 (oral), vehicle: clinical formulation
  survivor count: 7 of 9
dose: 32.0 mg/kg/injection, schedule: Q04DX003 (oral), vehicle: clinical formulation
  T/C: 128 % of control
dose: 32.0 mg/kg/injection, schedule: Q08DX002 (ip), vehicle: clinical formulation
  T/C: 144 % of control
dose: 32.0 mg/kg/injection, schedule: Q## X003 (ip), vehicle: other
  T/C: 139 % of control
dose: 32.0 mg/kg/injection, schedule: Q## X024 (ip), vehicle: other
  T/C: 144 % of control
dose: 37.5 mg/kg/injection, schedule: Q01DX001 (ip), vehicle: other
  T/C: 132, 140 [9 of 10 alive], 141, 145 % of control [9 of 10 alive]
dose: 37.5 mg/kg/injection, schedule: Q01DX001 (ip), vehicle: saline
  T/C: 136 % of control
dose: 37.5 mg/kg/injection, schedule: Q01DX001 (oral), vehicle: other
  survivor count: 4 of 10
dose: 37.5 mg/kg/injection, schedule: Q01DX001 (sc), vehicle: other
  T/C: 128 % of control [9 of 10 alive]
dose: 37.5 mg/kg/injection, schedule: Q01DX009 (ip), vehicle: Klucel (hydroxypropylcellulose) (HPC)
  T/C: 130 % of control [5 of 6 alive]
dose: 37.5 mg/kg/injection, schedule: Q03HX008 (ip), vehicle: other
  survivor count: 0 of 8
dose: 37.5 mg/kg/injection, schedule: Q03HX008 (ip), vehicle: steroid suspending solution
  survivor count: 7 of 8
dose: 37.5 mg/kg/injection, schedule: Q03HX016 (ip), vehicle: other
  survivor count: 0 of 8
dose: 37.5 mg/kg/injection, schedule: Q03HX016 (ip), vehicle: steroid suspending solution
  survivor count: 8 of 8
dose: 37.5 mg/kg/injection, schedule: Q04DX003 (ip), vehicle: Klucel (hydroxypropylcellulose) (HPC), evaluated on day 5
  T/C: 155 and 159 % of control
dose: 37.5 mg/kg/injection, schedule: Q04DX003 (ip), vehicle: Klucel (hydroxypropylcellulose) (HPC), evaluated on day 30
  T/C: 164 % of control
dose: 37.5 mg/kg/injection, schedule: Q04DX003 (ip), vehicle: Klucel (hydroxypropylcellulose) (HPC), evaluated on day 60
  T/C: 147, 155, 159 (2×), 211 % of control
dose: 37.5 mg/kg/injection, schedule: Q04DX003 (ip), vehicle: water
  T/C: 133 % of control
dose: 40.0 mg/kg/injection, schedule: Q01DX001 (ip), vehicle: acid diluted with saline
  T/C: 129 % of control
dose: 40.0 mg/kg/injection, schedule: Q01DX001 (ip), vehicle: other
  T/C: 125 % of control
dose: 40.0 mg/kg/injection, schedule: Q01DX009 (oral), vehicle: carboxymethylcellulose (CMC)
  T/C: 149 % of control
dose: 40.0 mg/kg/injection, schedule: Q01DX015 (oral), vehicle: carboxymethylcellulose (CMC)
  T/C: 130 % of control
dose: 40.0 mg/kg/injection, schedule: Q03HX008 (ip), vehicle: acid diluted with saline
  survivor count: 10 of 10
dose: 40.0 mg/kg/injection, schedule: Q04DX003 (ip), vehicle: saline with Tween-80
  T/C: 130 and 135 % of control
dose: 40.0 mg/kg/injection, schedule: Q04DX009 (ip), vehicle: Klucel (hydroxypropylcellulose) (HPC)
  T/C: 130 % of control
dose: 40.0 mg/kg/injection, schedule: Q## X008 (ip), vehicle: other
  T/C: 142 % of control
dose: 44.0 mg/kg/injection, schedule: Q01DX009 (ip), vehicle: saline
  T/C: 142 % of control
dose: 50.0 mg/kg/injection, schedule: Q01DX001 (ip), vehicle: saline
  T/C: 125 % of control
dose: 50.0 mg/kg/injection, schedule: Q01DX001 (oral), vehicle: saline with Tween-80
  T/C: 128 and 140 % of control
dose: 50.0 mg/kg/injection, schedule: Q01DX001 (oral), vehicle: water
  T/C: 125 % of control
dose: 50.0 mg/kg/injection, schedule: Q01DX005 (oral), vehicle: saline
  T/C: 139 % of control
dose: 50.0 mg/kg/injection, schedule: Q01DX009 (ip), vehicle: citric acid
  survivor count: 8 of 10 and 10 of 10
dose: 50.0 mg/kg/injection, schedule: Q01DX009 (ip), vehicle: clinical formulation
  survivor count: 9 of 10 and 10 of 10
dose: 50.0 mg/kg/injection, schedule: Q01DX Z (ip), vehicle: saline
  T/C: 143 % of control
dose: 50.0 mg/kg/injection, schedule: Q01DX Z (oral), vehicle: saline
  T/C: 130 % of control
dose: 50.0 mg/kg/injection, schedule: Q04DX003 (ip), vehicle: citric acid
  T/C: 130 % of control
dose: 50.0 mg/kg/injection, schedule: Q04DX003 (ip), vehicle: clinical formulation
  T/C: 145 % of control
dose: 50.0 mg/kg/injection, schedule: Q04DX003 (ip), vehicle: saline with Tween-80
  T/C: 132, 152, 154, 157, 185 % of control
dose: 50.0 mg/kg/injection, schedule: Q04DX003 (ip), vehicle: saline
  T/C: 145 % of control
dose: 50.0 mg/kg/injection, schedule: Q04DX003 (oral), vehicle: saline
  T/C: 147 % of control
[1]
  T/C: 105, 107 [4 of 6 alive], 115, 134 % of control
  survivor count: 6 of 6
dose: 64.0 mg/kg/injection, schedule: Q01DX009 (ip), vehicle: clinical formulation
  survivor count: 5 of 10
dose: 64.0 mg/kg/injection, schedule: Q01DX009 (ip), vehicle: other, evaluated on day 30
  T/C: 115 % of control
dose: 64.0 mg/kg/injection, schedule: Q01DX009 (ip), vehicle: other, evaluated on day 40
  T/C: 184 % of control
dose: 64.0 mg/kg/injection, schedule: Q01DX009 (ip), vehicle: other
  survivor count: 10 of 10 (2×)
dose: 64.0 mg/kg/injection, schedule: Q01DX009 (ip), vehicle: saline with Tween-80, evaluated on day 30
  T/C: 86, 88 [5 of 6 alive], 94, 103, 108, 109, 116, 124 % of control
dose: 64.0 mg/kg/injection, schedule: Q01DX009 (ip), vehicle: saline with Tween-80, evaluated on day 60
  T/C: 101 and 107 % of control [9 of 10 alive]
dose: 64.0 mg/kg/injection, schedule: Q01DX009 (ip), vehicle: saline with Tween-80
  survivor count: 6 of 6
dose: 64.0 mg/kg/injection, schedule: Q01DX009 (ip), vehicle: saline, evaluated on day 23
  T/C: 101 % of control
dose: 64.0 mg/kg/injection, schedule: Q01DX009 (ip), vehicle: saline, evaluated on day 30
  T/C: 141 % of control [9 of 10 alive]
dose: 64.0 mg/kg/injection, schedule: Q01DX009 (ip), vehicle: saline
  survivor count: 4 of 6
